No constants are given. Whether binding was seen depends on the method and setting. Some results given as binding are weak or reduced against the parent protein; the word gives no strength. One block for each binder: values may come before it.
Legend:
[1] = molecular target: vimentin, endogenous, in fixed and permeabilised LNCaP prostate cancer cells (human) (UniProt P08670); assay: FRET/FLIM in LNCaP cells with AF488 anti-vimentin and AF568 anti-hGIIA antibodies
[2] = molecular target: full length human vimentin, recombinant, His-tagged (pET15b, E. coli) (human) (UniProt P08670); assay: EIA, plate-bound full length vimentin, hGIIA 5-1000 ng/mL, detection with 4A1-AP
[3] = molecular target: vimentin coil 2 fragment (residues 254 to 405), recombinant, His-tagged (human) (UniProt P08670); assay: EIA, plate-bound vimentin coil 2, detection with AP-labelled hGIIA-specific monoclonal antibody
[4] = molecular target: vimentin coil 2 fragment (residues 254 to 405), recombinant, His-tagged (human) (UniProt P08670); assay: EIA, plate-bound vimentin coil 2, hGIIA 5-1000 ng/mL, detection with 4A1-AP
[5] = molecular target: vimentin coil 2 fragment (residues 254 to 405), recombinant, His-tagged (human) (UniProt P08670); assay: EIA, plate-bound vimentin fragments (summary of results)

The chains behind the UniProt entries cited, without tags or fusion partners. Where a name states a change or a piece, a line headed by the entry shows the natural chain unless it says otherwise.
UniProt P08670: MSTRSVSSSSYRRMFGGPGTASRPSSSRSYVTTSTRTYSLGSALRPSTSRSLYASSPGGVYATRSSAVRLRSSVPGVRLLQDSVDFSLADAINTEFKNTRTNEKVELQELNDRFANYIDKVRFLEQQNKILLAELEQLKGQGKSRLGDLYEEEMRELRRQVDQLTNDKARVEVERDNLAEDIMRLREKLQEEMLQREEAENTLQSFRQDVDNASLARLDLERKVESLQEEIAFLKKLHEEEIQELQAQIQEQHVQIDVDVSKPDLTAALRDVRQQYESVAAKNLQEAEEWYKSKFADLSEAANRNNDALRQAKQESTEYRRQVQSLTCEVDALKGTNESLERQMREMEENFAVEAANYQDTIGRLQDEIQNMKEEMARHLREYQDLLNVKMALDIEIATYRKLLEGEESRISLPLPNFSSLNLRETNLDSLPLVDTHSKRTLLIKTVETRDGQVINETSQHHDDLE

binding [1]: binds
B1: hGIIA, endogenous, in fixed and permeabilised LNCaP prostate cancer cells (enzyme)
chain: NLVNFHRMIKLTTGKEAALSYGFYGCHCGVGGRGSPKDATDRCCVTHDCCYKRLEKRGCGTKFLSYKFSNSGSRITCAKQDSCRSQLCECDKAAATCFARNKTTYNKKYQYYSNKHCRGSTPRC

binding [2]: binds
binding [3]: binds
binding [4]: binds
binding [5]: binds
B2: human group IIA secreted phospholipase A2 (hGIIA), recombinant, purified from conditioned media of CHO cell line 2B1 (enzyme)
chain: B1 chain

— patent US20230270817A1, “VIMENTIN INHIBITORS” (Filamon Pty Ltd, priority 2020, published 2023)
